# Results are given in words; binding and its absence hold for the method and conditions named. Some binding calls cover weakened binding; strength is not graded here.
# By UniProt entry, the sequences of proteins in these tests, tags left out. Where a name states a change or a piece, a line headed by the entry shows the natural chain unless it says otherwise. Chains listed by the source or under a name are the forms on record and can include a tag or linker.
# B7H1_M115D (Q9NZQ7, form named): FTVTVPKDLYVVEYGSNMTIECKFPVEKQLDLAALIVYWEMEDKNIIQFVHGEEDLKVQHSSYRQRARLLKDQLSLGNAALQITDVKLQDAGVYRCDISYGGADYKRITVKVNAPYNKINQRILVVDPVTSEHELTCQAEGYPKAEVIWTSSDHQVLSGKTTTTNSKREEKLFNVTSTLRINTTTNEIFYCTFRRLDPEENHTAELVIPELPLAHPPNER
# Target: 2.7A4OPT
# Assay: HTRF competition assay, told in the text
substance,measurement,value
B7H1_M115D (from UniProt Q9NZQ7 19-238) (ligand),binding,binds
